# Experimental data published in the supplement of paper PMC10689618.
# Where a name gives a salt, the structure may show the parent alone. Some of the results follow. Repeats are few or missing, and single values can be far off.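 Primary human fetal astrocytes engulfed labelled rat cortical synaptosomes, measured as a red/green ratio corrected for calcein live-cell signal and scaled to the plate median. Toxicity meant calcein falling over 30%; decreased phagocytosis meant below 70% of median above 5 µM.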
# How the values were obtained:
# Details in all cases: 24 h
# Human fetal astrocytes [1] = assay: loss of total cells relative to no-compound high-control median (toxicity); higher = more toxic (fewer cells)
# Human fetal astrocytes [2] = assay: synaptosome phagocytosis (pHrodo/calcein intensity ratio) relative to plate median of data wells; higher = more phagocytosis
# Human fetal astrocytes [3] = assay: loss of total cells relative to no-compound high-control median (toxicity); higher = more toxic (fewer cells); remark: listed apart in the source
# Human fetal astrocytes [4] = assay: synaptosome phagocytosis (pHrodo/calcein intensity ratio) relative to plate median of data wells; higher = more phagocytosis; remark: listed apart in the source
compound,measurement,setting,value
COc1ccc2c3c1O[C@H]1C[C@@H](O)C=C[C@@]31CCN(C)C2,loss of total cells,Human fetal astrocytes [1]; 1.39 µM,-22.4%
same,loss of total cells,Human fetal astrocytes [1]; 2.78 µM,-16.8%
same,loss of total cells,Human fetal astrocytes [1]; 5.56 µM,2.1%
same,loss of total cells,Human fetal astrocytes [1]; 11.11 µM,-23.4%
same,loss of total cells,Human fetal astrocytes [1]; 22.22 µM,13.6%
same,synaptosome phagocytosis,Human fetal astrocytes [2]; 1.39 µM,112%
same,synaptosome phagocytosis,Human fetal astrocytes [2]; 2.78 µM,108%
same,synaptosome phagocytosis,Human fetal astrocytes [2]; 5.56 µM,121%
same,synaptosome phagocytosis,Human fetal astrocytes [2]; 11.11 µM,90.5%
same,synaptosome phagocytosis,Human fetal astrocytes [2]; 22.22 µM,140%
COc1cc([S+](C)[O-])ccc1-c1nc2cccnc2[nH]1 (stereo not given),loss of total cells,Human fetal astrocytes [1]; 1.39 µM,3.2%
same,loss of total cells,Human fetal astrocytes [1]; 2.78 µM,22%
same,loss of total cells,Human fetal astrocytes [1]; 5.56 µM,20.3%
same,loss of total cells,Human fetal astrocytes [1]; 11.11 µM,17.2%
same,loss of total cells,Human fetal astrocytes [1]; 22.22 µM,16.7%
same,synaptosome phagocytosis,Human fetal astrocytes [2]; 1.39 µM,114%
same,synaptosome phagocytosis,Human fetal astrocytes [2]; 2.78 µM,117%
same,synaptosome phagocytosis,Human fetal astrocytes [2]; 5.56 µM,101%
same,synaptosome phagocytosis,Human fetal astrocytes [2]; 11.11 µM,124%
same,synaptosome phagocytosis,Human fetal astrocytes [2]; 22.22 µM,117%
Clc1ccc(Cn2c(CN3CCCC3)nc3ccccc32)cc1 [Clemizole hydrochloride],loss of total cells,Human fetal astrocytes [3]; 1.39 µM,-16.9%
same,loss of total cells,Human fetal astrocytes [3]; 2.78 µM,-25.6%
same,loss of total cells,Human fetal astrocytes [3]; 5.56 µM,-3.2%
same,loss of total cells,Human fetal astrocytes [3]; 11.11 µM,-11.2%
same,loss of total cells,Human fetal astrocytes [3]; 22.22 µM,4.1%
same,loss of total cells,Human fetal astrocytes [1]; 1.39 µM,18.4%
same,loss of total cells,Human fetal astrocytes [1]; 2.78 µM,3.2%
same,loss of total cells,Human fetal astrocytes [1]; 5.56 µM,5.8%
same,loss of total cells,Human fetal astrocytes [1]; 11.11 µM,8.8%
same,loss of total cells,Human fetal astrocytes [1]; 22.22 µM,25%
same,synaptosome phagocytosis,Human fetal astrocytes [2]; 1.39 µM,122%
same,synaptosome phagocytosis,Human fetal astrocytes [2]; 2.78 µM,76.3%
same,synaptosome phagocytosis,Human fetal astrocytes [2]; 5.56 µM,83.4%
same,synaptosome phagocytosis,Human fetal astrocytes [2]; 11.11 µM,74%
same,synaptosome phagocytosis,Human fetal astrocytes [2]; 22.22 µM,87.7%
same,synaptosome phagocytosis,Human fetal astrocytes [4]; 1.39 µM,139%
same,synaptosome phagocytosis,Human fetal astrocytes [4]; 2.78 µM,100%
same,synaptosome phagocytosis,Human fetal astrocytes [4]; 5.56 µM,103%
same,synaptosome phagocytosis,Human fetal astrocytes [4]; 11.11 µM,101%
same,synaptosome phagocytosis,Human fetal astrocytes [4]; 22.22 µM,109%
CN(Cc1cc(Br)cc(Br)c1N)C1CCCCC1,loss of total cells,Human fetal astrocytes [1]; 1.39 µM,-21.8%
same,loss of total cells,Human fetal astrocytes [1]; 2.78 µM,-26.2%
same,loss of total cells,Human fetal astrocytes [1]; 5.56 µM,0%
same,loss of total cells,Human fetal astrocytes [1]; 11.11 µM,22.6%
same,loss of total cells,Human fetal astrocytes [1]; 22.22 µM,12.1%
same,synaptosome phagocytosis,Human fetal astrocytes [2]; 1.39 µM,95.6%
same,synaptosome phagocytosis,Human fetal astrocytes [2]; 2.78 µM,116%
same,synaptosome phagocytosis,Human fetal astrocytes [2]; 5.56 µM,113%
same,synaptosome phagocytosis,Human fetal astrocytes [2]; 11.11 µM,117%
same,synaptosome phagocytosis,Human fetal astrocytes [2]; 22.22 µM,80.9%
O=c1c(O)c(-c2ccccc2)oc2cc(O)ccc12,loss of total cells,Human fetal astrocytes [1]; 1.39 µM,0%
same,loss of total cells,Human fetal astrocytes [1]; 2.78 µM,0.4%
same,loss of total cells,Human fetal astrocytes [1]; 5.56 µM,-13.2%
same,loss of total cells,Human fetal astrocytes [1]; 11.11 µM,11.5%
same,loss of total cells,Human fetal astrocytes [1]; 22.22 µM,0.7%
same,synaptosome phagocytosis,Human fetal astrocytes [2]; 1.39 µM,105%
same,synaptosome phagocytosis,Human fetal astrocytes [2]; 2.78 µM,85.3%
same,synaptosome phagocytosis,Human fetal astrocytes [2]; 5.56 µM,97.2%
same,synaptosome phagocytosis,Human fetal astrocytes [2]; 11.11 µM,103%
same,synaptosome phagocytosis,Human fetal astrocytes [2]; 22.22 µM,106%
OC[C@H]1O[C@H](O[C@]2(CCl)O[C@H](CCl)[C@@H](O)[C@@H]2O)[C@H](O)[C@@H](O)[C@H]1Cl,loss of total cells,Human fetal astrocytes [1]; 1.39 µM,-13.4%
same,loss of total cells,Human fetal astrocytes [1]; 2.78 µM,0%
same,loss of total cells,Human fetal astrocytes [1]; 5.56 µM,35.1%
same,loss of total cells,Human fetal astrocytes [1]; 11.11 µM,-3.9%
same,loss of total cells,Human fetal astrocytes [1]; 22.22 µM,15.2%
same,synaptosome phagocytosis,Human fetal astrocytes [2]; 1.39 µM,112%
same,synaptosome phagocytosis,Human fetal astrocytes [2]; 2.78 µM,110%
same,synaptosome phagocytosis,Human fetal astrocytes [2]; 5.56 µM,124%
same,synaptosome phagocytosis,Human fetal astrocytes [2]; 11.11 µM,81.7%
same,synaptosome phagocytosis,Human fetal astrocytes [2]; 22.22 µM,123%
CCC(=O)O[C@]1(C(=O)CCl)[C@@H](C)C[C@H]2[C@@H]3CCC4=CC(=O)C=C[C@]4(C)[C@@]3(F)[C@@H](O)C[C@@]21C,loss of total cells,Human fetal astrocytes [1]; 1.39 µM,-39.5%
same,loss of total cells,Human fetal astrocytes [1]; 2.78 µM,12.7%
same,loss of total cells,Human fetal astrocytes [1]; 5.56 µM,5.6%
same,loss of total cells,Human fetal astrocytes [1]; 11.11 µM,46.9%
same,loss of total cells,Human fetal astrocytes [1]; 22.22 µM,2.8%
same,synaptosome phagocytosis,Human fetal astrocytes [2]; 1.39 µM,93.2%
same,synaptosome phagocytosis,Human fetal astrocytes [2]; 2.78 µM,134%
same,synaptosome phagocytosis,Human fetal astrocytes [2]; 5.56 µM,112%
same,synaptosome phagocytosis,Human fetal astrocytes [2]; 11.11 µM,121%
same,synaptosome phagocytosis,Human fetal astrocytes [2]; 22.22 µM,85.7%

# A second format for some results above.
compound	measurement	setting	value
COc1cc([S+](C)[O-])ccc1-c1nc2cccnc2[nH]1 (stereo not given)	loss of total cells	Human fetal astrocytes [1]; 11.11 µM	17.2%
CCC(=O)O[C@]1(C(=O)CCl)[C@@H](C)C[C@H]2[C@@H]3CCC4=CC(=O)C=C[C@]4(C)[C@@]3(F)[C@@H](O)C[C@@]21C	loss of total cells	Human fetal astrocytes [1]; 11.11 µM	46.9%
